# Measured values reported in PubChem BioAssay AID1671190 (National Center for Advancing Translational Sciences (NCATS), 2021).
# Sequences of proteins named here, by UniProt entry; tags and fusion partners are left off. A change or cut given only in a name is not applied to a line headed by its entry.
# UniProt P18054: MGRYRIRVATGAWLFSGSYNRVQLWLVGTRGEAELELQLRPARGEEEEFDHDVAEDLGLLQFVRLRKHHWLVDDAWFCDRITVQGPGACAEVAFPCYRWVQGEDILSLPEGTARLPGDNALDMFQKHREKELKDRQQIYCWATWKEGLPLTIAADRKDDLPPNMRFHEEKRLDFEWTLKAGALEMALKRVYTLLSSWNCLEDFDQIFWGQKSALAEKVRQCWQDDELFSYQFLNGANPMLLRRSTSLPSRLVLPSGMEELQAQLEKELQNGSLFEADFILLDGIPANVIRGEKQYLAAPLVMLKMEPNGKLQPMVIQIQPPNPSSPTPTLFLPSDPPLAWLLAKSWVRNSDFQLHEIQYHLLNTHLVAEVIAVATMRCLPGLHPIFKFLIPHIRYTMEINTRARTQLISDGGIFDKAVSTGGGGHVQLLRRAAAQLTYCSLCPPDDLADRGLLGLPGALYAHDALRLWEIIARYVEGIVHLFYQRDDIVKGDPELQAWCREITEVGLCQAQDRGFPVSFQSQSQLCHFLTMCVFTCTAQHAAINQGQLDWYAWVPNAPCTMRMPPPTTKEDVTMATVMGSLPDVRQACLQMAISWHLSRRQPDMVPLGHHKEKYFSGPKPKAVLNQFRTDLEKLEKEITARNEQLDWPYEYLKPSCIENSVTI
# The whole screen tested about 580,000 compounds, of which about 6,100 (1.1%) were called active. The inconclusive results got no clear call from the source; some entries with a clear call stand among them for comparison. The call rests on the fitted dose curve; in most records, active means well fitted inhibition curve with a large enough effect; inconclusive means small, poorly fitted or top-dose-only effect, or another doubt; inactive means no such curve, though single readings can be large or run the other way. Potencies of inconclusive entries are doubtful fits and often do not repeat.
# Biological target: Polyunsaturated fatty acid lipoxygenase ALOX12 (Homo sapiens) (UniProt P18054)
# Test: Primary qHTS assay for inhibitors of human arachidonate 12S-lipoxygenase (ALOX12): Round 2
# Conditions: purified 12hLO, xylenol orange hydroperoxide absorbance; activity change, negative = inhibition: at 108 µM (top of the series) unless noted
# How it was run: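 Purified human 12hLO at 150 nM in 25 mM Hepes, 0.01% Triton X-100, pH 7.0, preincubated 15 min at room temperature with compound. Reaction started with 40 uM arachidonic acid, 30 min at room temperature. Hydroperoxide measured by Fe-xylenol orange, 573/405 nm absorbance ratio.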
# On the % scale 0 is the no-effect control and ±100 the full control effect; potency means the concentration at half of the fitted maximal effect.
Compound,"activity change, negative = inhibition",Potency
Nc1ccc(O)c(C(=O)O)c1,inactive: -29.8% [at 22.9 µM],–
CN(CC(=O)Nc1ccccc1OCC(F)(F)F)S(=O)(=O)c1ccc2ccccc2c1,–,"inconclusive: 100 µM [inhibitor, single point]"
COc1ccc(Nc2cc3c(cn2)cc(-c2cccc(C(F)(F)F)c2)n3C)cc1,–,active: 44.7 µM
CCOC(=O)c1cn(CC2CC2)c2cc(F)c(F)cc2c1=O,inactive: -0.215%,–
CCN(CC)CCNC(=O)Nc1ccc2c(c1)N(Cc1ccccc1)C(=O)c1ccccc1S2,–,"inconclusive: 112 µM [inhibitor, partial curve, poor fit]"
CCOC(=O)Cc1csc(NC(=O)NC2(C(F)(F)F)Oc3cc(Cl)c(Cl)cc3O2)n1,–,active: 0.631 µM
CC1C/C(=C/c2cccn2C)C(=O)/C(=C/c2cccn2C)C1 (configuration not stated),–,"inconclusive: 39.8 µM [inhibitor, partial curve, poor fit]"
COc1cc2c(cc1OC)C1c3ccc(OC)c(OC)c3OCC1(O)C2 (configuration not stated),–,"inconclusive: 6.31 µM [inhibitor, full curve, poor fit]"
CCC(=O)N(C1CCOCC1)C1CCN(S(=O)(=O)c2ccc(Cl)cc2C)CC1,–,"inconclusive: 44.7 µM [inhibitor, partial curve, poor fit]"
CCC1c2ccsc2CCN1C(=O)COc1ccc2c(C)cc(=O)oc2c1 (configuration not stated),–,"inconclusive: 89.1 µM [inhibitor, single point]"
Cc1ccc(/C=C/c2ccc(=O)n(Cc3ccc(F)cc3)n2)cc1,–,"inconclusive: 39.8 µM [inhibitor, partial curve, poor fit]"
CCCC(C)NC(=O)c1cc(C(=O)OC)cc([N+](=O)[O-])c1 (configuration not stated),–,"inconclusive: 100 µM [inhibitor, single point]"
Cc1cc(N2CCN(C3CCCCC3)CC2)n2nc(C)nc2n1,–,"inconclusive: 5.01 µM [inhibitor, partial curve, poor fit]"
NC(=O)c1ccc2nc(-c3ccc(Oc4ccc(Cl)cc4)cc3)[nH]c2c1,–,"inconclusive: 27.3 µM [inhibitor, partial curve]"
CC1CCCCN1S(=O)(=O)c1ccc2c(c1)oc(=O)n2CC(=O)O (configuration not stated),–,"inconclusive: 5.62 µM [inhibitor, full curve, poor fit]"
CN(C)/C=C/C(=O)c1ccc(-c2ccc(Cl)cc2Cl)o1,–,active: 1.58 µM
Cc1ccccc1N=C(NOCc1ccccc1)c1nonc1N,–,"inconclusive: 11.2 µM [inhibitor, full curve, poor fit]"
CCc1ccc(S(=O)(=O)N(C(=O)Oc2ccccc2)c2ccc3oc(C)c(C(=O)OC)c3c2)cc1,inactive: -27.1%,–
CNC1CCC(N(Cc2cccc(-c3ccncc3)c2)C(=O)c2sc3ccccc3c2Cl)CC1 (configuration not stated),–,"inconclusive: 43.2 µM [inhibitor, partial curve, poor fit]"
CCN(C(=O)COC(=O)CNC(=O)c1cccs1)c1c(N)n(Cc2ccccc2)c(=O)[nH]c1=O,inactive: 0%,–
CC(NC(=O)c1ccccc1SCc1cccs1)c1cccs1 (configuration not stated),–,"inconclusive: 35.5 µM [inhibitor, single point]"
CC(C)(C)c1ccc(-c2nc(SCC(=O)Nc3ccc(Cl)cc3)[nH]c(=O)c2C#N)cc1,–,"inconclusive: 112 µM [inhibitor, single point]"
Cc1nn2c(NCCN(C)C)c3c(nc2c1-c1ccccc1)CCCC3,inactive: 0%,–

Compound,"activity change, negative = inhibition",Potency
COc1nc(-c2ccccc2)ccc1-c1noc(-c2ccco2)n1,–,active: 20 µM
CCn1nc(C)cc1C(=O)OCC(=O)c1ccc(Cl)cc1,–,"inconclusive: 56.2 µM [inhibitor, partial curve, poor fit]"
COc1ccc(Nc2nc(-c3ccc4c(c3)CCC(=O)N4)cs2)cc1,–,"inconclusive: 7.94 µM [inhibitor, full curve, poor fit]"
FC(F)(F)c1ccc(CCNC(=S)NC2CC2)cc1,–,"inconclusive: 35.5 µM [inhibitor, partial curve, poor fit]"
Clc1ccc(NCn2cncn2)nc1,inactive: 0%,–
Cc1ccc(C2SCc3cc(C)c(C)cc3CS2)c(O)c1,–,"inconclusive: 89.1 µM [inhibitor, partial curve, poor fit]"
CC1CCN(c2nc(-c3ccco3)c3c(c2C#N)CC(C)(C)OC3)CC1,–,"inconclusive: 15.8 µM [inhibitor, full curve]"
Cc1ccccc1CN1C(=O)c2ccccc2Sc2ccc(C(=O)NC3CCCC3)cc21,–,"inconclusive: 126 µM [inhibitor, partial curve, poor fit]"
COc1ccc(OC)c(/C=C/C(=O)Nc2ccc(C(=O)OCCC(C)C)cc2)c1,–,"inconclusive: 158 µM [inhibitor, partial curve, poor fit]"
COc1ccccc1CNc1nc(-c2ccco2)nn1S(=O)(=O)c1ccccc1,inactive: -13.2%,–
Fc1ccc(CCNC(=S)Nc2ccc(Oc3ccccc3)cc2)cc1,–,active: 22.4 µM
CCCCN(CCCC)C(=O)C1CCN(S(=O)(=O)c2cccc3nsnc23)CC1,inactive: 0.33%,–
CCCc1c(C(=O)NNc2cccc(Cl)c2)cnn1-c1ccccc1,–,"inconclusive: 28.2 µM [inhibitor, partial curve, poor fit]"
O=C1/C(=C/c2ccc([N+](=O)[O-])cc2)CCOc2ccc(F)cc21,inactive: -17.2%,–
O=C(CCn1nnc2ccccc21)OCC(=O)c1cccc(Br)c1,–,"inconclusive: 5.01 µM [inhibitor, full curve, poor fit]"
CC(=O)NC1(C)CN(Cc2ccc(-c3ccc(Oc4ccccc4)cc3)s2)C1,–,"inconclusive: 44.7 µM [inhibitor, partial curve]"
COCCNC(=O)CSc1ccccc1C(=O)NC1CCSc2ccccc21 (configuration not stated),–,"inconclusive: 100 µM [inhibitor, single point]"
Cn1c(=O)c2c(nc(SCC(=O)O)n2Cc2c(F)cccc2Cl)n(C)c1=O,–,"inconclusive: 20 µM [inhibitor, partial curve, poor fit]"
Cc1ccccc1CSc1nc2c(cnn2CCO)c(=O)[nH]1,inactive: 14.3%,–
COCC(CN1CCN(C2=NS(=O)(=O)c3ccccc32)CC1)OC(=O)c1ccccc1 (configuration not stated),–,"inconclusive: 7.94 µM [inhibitor, full curve, poor fit]"
Cc1cnn(CCC(=O)N2CCCC(c3nnc(Cn4ccnc4)n3C)C2)c1 (configuration not stated),inactive: 3.24%,–
CCOc1cc(CNCc2cccnc2)cc(Cl)c1OCC,–,"inconclusive: 7.94 µM [inhibitor, full curve, poor fit]"
COc1ccc(-n2c(C)cc(C(=O)Cn3nc(C(=O)O)c4ccccc4c3=O)c2C)cc1,–,"inconclusive: 141 µM [inhibitor, partial curve, poor fit]"

# Pulled by compound from the list above:
Compound,"activity change, negative = inhibition",Potency
CCCCN(CCCC)C(=O)C1CCN(S(=O)(=O)c2cccc3nsnc23)CC1,inactive: 0.33%,–
Cc1ccc(/C=C/c2ccc(=O)n(Cc3ccc(F)cc3)n2)cc1,–,"inconclusive: 39.8 µM [inhibitor, partial curve, poor fit]"
CC1CCCCN1S(=O)(=O)c1ccc2c(c1)oc(=O)n2CC(=O)O (configuration not stated),–,"inconclusive: 5.62 µM [inhibitor, full curve, poor fit]"

# (next part)

Compound,"activity change, negative = inhibition",Potency
COc1cc(OC)c2c(-c3cccc(-c4ccc(OC)c(F)c4)c3)cc(=O)oc2c1,–,"inconclusive: 112 µM [inhibitor, single point]"
S=C(Cc1ccc(Cl)cc1)N1CCOCC1,–,"inconclusive: 56.2 µM [inhibitor, partial curve, poor fit]"
Cc1cc(C)cc(C(=O)Nc2cc3c4c(c2)CC(=O)N4CCC3)c1,–,"inconclusive: 44.7 µM [inhibitor, partial curve, poor fit]"
Cc1ccc(NC(=O)CN(C)S(=O)(=O)c2ccc3[nH]c4c(c3c2)CCCC4)c(Cl)c1,–,"inconclusive: 17.8 µM [inhibitor, partial curve, poor fit]"
O=C(OCc1ccc(F)cc1)c1cnc2ccccc2n1,–,active: 1.26 µM
O=C(Oc1cccc2cccnc12)c1ccc(-c2ccccc2)cc1,inactive: -32.6%,–
Cc1cc(C)c2nc(-c3cccnc3)cc(C(=O)Nc3ccc(S(=O)(=O)Nc4onc(C)c4C)cc3)c2c1,–,"inconclusive: 79.4 µM [inhibitor, partial curve, poor fit]"
COc1ccc(C2=Nc3cccc4cccc(c34)N2)cc1,inactive: 30.9%,–
CCCCn1cnc2c(c1=O)c1nc3ccccc3nc1n2Cc1ccc2c(c1)OCO2,–,active: 7.94 µM
COc1ccc(CN2CCN(Cc3ccccc3F)CC2)cc1OC,–,"inconclusive: 0.0794 µM [inhibitor, full curve, poor fit]"
CC(C)(C)NC(=O)C(c1ccnc2ccccc12)n1c(=O)c(-c2ccco2)nc2ccccc21 (configuration not stated),–,"inconclusive: 50.1 µM [inhibitor, partial curve, poor fit]"
COc1ccccc1CC(=O)Nc1cccc(C(=O)NN2C(=O)c3ccccc3C2=O)c1,–,"inconclusive: 158 µM [inhibitor, partial curve, poor fit]"
Cc1cc(NC(=O)c2ccoc2C)ccc1Br,–,"inconclusive: 126 µM [inhibitor, single point]"
CC(Oc1ccccc1)c1nn2c(=O)c3ccccc3nc2s1 (configuration not stated),–,"inconclusive: 28.2 µM [inhibitor, partial curve, poor fit]"
COc1ccc(/C(N)=N/OC(=O)c2cccs2)cc1OC,inactive: 52.2%,–
O=C(CSc1nc2c([nH]c3ccccc32)c(=O)n1-c1ccccc1)Nc1ccc2c(c1)OCCO2,inactive: 5.52%,–
C=CCOC(=O)C1=C[C@H](c2ccc(Br)cc2)C[C@H](OCCCCO)O1,–,"inconclusive: 39.8 µM [inhibitor, partial curve, poor fit]"
COc1ccc(-c2c(NC(=O)c3ccc([N+](=O)[O-])cc3)oc3ccccc3c2=O)cc1OC,inactive: -14.6%,–
CCN(CCCNC(=O)c1cc2c(Cl)nc3ccccc3c2s1)Cc1ccccc1,–,"inconclusive: 44.7 µM [inhibitor, partial curve, poor fit]"
CCCCCCCCNCCS(=O)(=O)NN1CCOCC1,inactive: 1.77%,–
CCN1C(=O)/C(=C/C=C2\C=CN(CC)c3ccccc32)SC1=S,–,"inconclusive: 56.2 µM [inhibitor, partial curve, poor fit]"
